Some of the results follow. Single values are uncertain, as repeats are few or missing.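 Cells were imaged in 1,536-well plates, and nuclei stained with an antibody against cleaved PARP were counted against all DNA-stained nuclei to give the apoptosis fraction. Screening doses were chosen to leave most cells alive, and resting and induced cleaved-PARP levels differ strongly between cell lines.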
tested on: MZ2-MEL; experiment: cleaved PARP positive nuclei fraction relative to DMSO control; melanoma cells; higher = more apoptosis; settings: library dose: low library concentration; 72 h

SMILES | cleaved PARP positive nuclei fraction [%]
COc1ccc(C2=N[C@@H](c3ccc(Cl)cc3)[C@@H](c3ccc(Cl)cc3)N2C(=O)N2CCNC(=O)C2)c(OC(C)C)c1 [Nutlin-3] + COc1ccc2c(c1)CCC1C2CCC2(C)C(NCCCCCCN3C(=O)C=CC3=O)CCC12 [U73122] (first compound 0.1 µM, partner dose 0.4 µM) | 229
CS(=O)(=O)c1ccc(C(=O)Nc2ccc(Cl)c(-c3ccccn3)c2)c(Cl)c1 [vismodegib] + Cc1cc(N2CCOCC2)cc2[nH]c(-c3c(NC[C@@H](O)c4cccc(Cl)c4)cc[nH]c3=O)nc12 [BMS536924] (first compound 1 µM, partner dose 0.2 µM) | 84
CC1(C)CCC(c2ccc(Cl)cc2)=C(CN2CCN(c3ccc(C(=O)NS(=O)(=O)c4ccc(N[C@H](CCN5CCOCC5)CSc5ccccc5)c(S(=O)(=O)C(F)(F)F)c4)cc3)CC2)C1 + Cc1cc(N2CCOCC2)cc2[nH]c(-c3c(NC[C@@H](O)c4cccc(Cl)c4)cc[nH]c3=O)nc12 [BMS536924] (first compound 0.4 µM, partner dose 0.2 µM) | 186
CC(=O)O[C@@]12CO[C@@H]1C[C@H](O)[C@@]1(C)C(=O)[C@H](O)C3=C(C)[C@@H](OC(=O)[C@H](O)[C@@H](NC(=O)OC(C)(C)C)c4ccccc4)C[C@@](O)([C@@H](OC(=O)c4ccccc4)[C@H]21)C3(C)C [Docetaxel] + Cc1ccc(NC(=O)c2cccc(N(C)C)c2)cc1NC(=O)c1ccc(O)cc1 [ZM336372] (first compound 0.0001 µM, partner dose 2 µM) | 493
C[C@@H](N)c1ccc(C(=O)Nc2ccnc3[nH]ccc23)cc1 + COc1cc(N2CCC(N3CCN(C)CC3)CC2)ccc1Nc1ncc(Cl)c(Nc2ccccc2S(=O)(=O)C(C)C)n1 [NVP-TAE684] (first compound 0.4 µM, partner dose 0.08 µM) | 374
CCN(CC)CCNC(=O)c1c(C)[nH]c(/C=C2\C(=O)Nc3ccc(F)cc32)c1C [sunitinib] + O=c1cc(-c2cccc3c2Sc2ccccc2S3)oc(N2CCOCC2)c1 [KU55933] (first compound 0.4 µM, partner dose 1 µM) | 148
C[C@]1(O)C[C@@H](c2nc(-c3ccc4ccc(-c5ccccc5)nc4c3)c3c(N)nccn32)C1 + O=C(Nc1ccccc1)c1cc([N+](=O)[O-])ccc1Cl [GW9662] (first compound 0.4 µM, partner dose 2 µM) | 159
CCCCCCCCc1ccc(CCC(N)(CO)CO)cc1 [fingolimod] + NCC(=O)Nc1ccc(-n2nc(C(F)(F)F)cc2-c2ccc3c(ccc4ccccc43)c2)cc1 [OSU03012] (first compound 2 µM, partner dose 1 µM) | 165
CC1(C)CCC(c2ccc(Cl)cc2)=C(CN2CCN(c3ccc(C(=O)NS(=O)(=O)c4ccc(N[C@H](CCN5CCOCC5)CSc5ccccc5)c(S(=O)(=O)C(F)(F)F)c4)cc3)CC2)C1 + CO[C@@H]1[C@H](N(C)C(=O)c2ccccc2)C[C@H]2O[C@]1(C)n1c3ccccc3c3c4c(c5c6ccccc6n2c5c31)C(=O)NC4 [Midostaurin] (first compound 0.4 µM, partner dose 0.08 µM) | 186
C[C@]1(O)C[C@@H](c2nc(-c3ccc4ccc(-c5ccccc5)nc4c3)c3c(N)nccn32)C1 + Cc1cc([N+](=O)[O-])ccc1NS(=O)(=O)c1cc(Cl)ccc1Cl [FH535] (first compound 0.4 µM, partner dose 1 µM) | 91.1

Nothing new here: entries from further up.
SMILES | cleaved PARP positive nuclei fraction [%]
CC(=O)O[C@@]12CO[C@@H]1C[C@H](O)[C@@]1(C)C(=O)[C@H](O)C3=C(C)[C@@H](OC(=O)[C@H](O)[C@@H](NC(=O)OC(C)(C)C)c4ccccc4)C[C@@](O)([C@@H](OC(=O)c4ccccc4)[C@H]21)C3(C)C [Docetaxel] + Cc1ccc(NC(=O)c2cccc(N(C)C)c2)cc1NC(=O)c1ccc(O)cc1 [ZM336372] (first compound 0.0001 µM, partner dose 2 µM) | 493
C[C@@H](N)c1ccc(C(=O)Nc2ccnc3[nH]ccc23)cc1 + COc1cc(N2CCC(N3CCN(C)CC3)CC2)ccc1Nc1ncc(Cl)c(Nc2ccccc2S(=O)(=O)C(C)C)n1 [NVP-TAE684] (first compound 0.4 µM, partner dose 0.08 µM) | 374

From the supplement of paper PMC4604168 (melanoma cell lines)
